According to the supplement of paper PMC10849652:
The other results are listed elsewhere or left out.

Chains of the proteins cited; added tags and fusions are not shown. Lines headed by an entry give the natural chain unless they say otherwise; changes in a name come on top.
UniProt Q13043: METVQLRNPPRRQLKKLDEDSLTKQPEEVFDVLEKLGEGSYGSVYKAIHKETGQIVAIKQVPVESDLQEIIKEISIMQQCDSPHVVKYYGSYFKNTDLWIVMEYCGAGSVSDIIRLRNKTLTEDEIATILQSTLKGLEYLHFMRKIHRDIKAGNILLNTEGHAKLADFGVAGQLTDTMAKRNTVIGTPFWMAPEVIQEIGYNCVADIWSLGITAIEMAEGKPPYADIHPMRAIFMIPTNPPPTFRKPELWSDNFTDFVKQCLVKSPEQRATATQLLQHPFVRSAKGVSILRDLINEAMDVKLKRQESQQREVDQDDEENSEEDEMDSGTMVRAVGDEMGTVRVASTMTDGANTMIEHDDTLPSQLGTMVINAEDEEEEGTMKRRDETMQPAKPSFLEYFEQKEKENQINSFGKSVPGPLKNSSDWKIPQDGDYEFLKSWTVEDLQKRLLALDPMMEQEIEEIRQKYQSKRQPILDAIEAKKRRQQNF
UniProt O75683: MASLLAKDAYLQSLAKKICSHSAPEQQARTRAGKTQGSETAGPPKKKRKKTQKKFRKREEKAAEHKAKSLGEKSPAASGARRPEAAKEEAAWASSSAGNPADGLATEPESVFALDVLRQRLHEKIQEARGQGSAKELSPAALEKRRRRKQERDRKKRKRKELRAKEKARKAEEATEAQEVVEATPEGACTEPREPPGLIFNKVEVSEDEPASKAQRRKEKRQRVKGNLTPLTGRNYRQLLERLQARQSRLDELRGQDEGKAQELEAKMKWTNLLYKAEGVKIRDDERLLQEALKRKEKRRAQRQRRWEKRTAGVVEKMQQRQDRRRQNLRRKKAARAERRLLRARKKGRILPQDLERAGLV
UniProt Q9P2R7: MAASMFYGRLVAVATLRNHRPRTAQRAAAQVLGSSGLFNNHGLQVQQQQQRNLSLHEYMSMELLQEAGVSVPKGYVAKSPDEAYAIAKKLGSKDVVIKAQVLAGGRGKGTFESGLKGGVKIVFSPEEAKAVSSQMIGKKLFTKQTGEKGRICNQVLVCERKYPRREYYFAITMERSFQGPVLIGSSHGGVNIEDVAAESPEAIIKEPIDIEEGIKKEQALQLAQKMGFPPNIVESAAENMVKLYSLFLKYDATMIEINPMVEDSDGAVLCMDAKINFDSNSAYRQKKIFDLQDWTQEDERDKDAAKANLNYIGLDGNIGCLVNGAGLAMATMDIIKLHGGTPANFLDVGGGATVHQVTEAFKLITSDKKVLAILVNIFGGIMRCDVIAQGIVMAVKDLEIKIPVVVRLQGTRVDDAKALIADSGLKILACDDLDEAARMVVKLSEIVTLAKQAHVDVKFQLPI
UniProt Q17R31: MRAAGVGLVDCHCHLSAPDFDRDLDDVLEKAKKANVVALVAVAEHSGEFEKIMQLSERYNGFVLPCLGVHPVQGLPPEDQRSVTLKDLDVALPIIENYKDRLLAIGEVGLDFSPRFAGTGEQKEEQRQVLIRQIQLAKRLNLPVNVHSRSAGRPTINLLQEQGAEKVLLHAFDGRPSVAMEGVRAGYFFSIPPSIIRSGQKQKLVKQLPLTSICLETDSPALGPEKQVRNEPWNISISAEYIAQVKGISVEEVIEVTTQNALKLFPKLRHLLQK
UniProt Q9Y2H1: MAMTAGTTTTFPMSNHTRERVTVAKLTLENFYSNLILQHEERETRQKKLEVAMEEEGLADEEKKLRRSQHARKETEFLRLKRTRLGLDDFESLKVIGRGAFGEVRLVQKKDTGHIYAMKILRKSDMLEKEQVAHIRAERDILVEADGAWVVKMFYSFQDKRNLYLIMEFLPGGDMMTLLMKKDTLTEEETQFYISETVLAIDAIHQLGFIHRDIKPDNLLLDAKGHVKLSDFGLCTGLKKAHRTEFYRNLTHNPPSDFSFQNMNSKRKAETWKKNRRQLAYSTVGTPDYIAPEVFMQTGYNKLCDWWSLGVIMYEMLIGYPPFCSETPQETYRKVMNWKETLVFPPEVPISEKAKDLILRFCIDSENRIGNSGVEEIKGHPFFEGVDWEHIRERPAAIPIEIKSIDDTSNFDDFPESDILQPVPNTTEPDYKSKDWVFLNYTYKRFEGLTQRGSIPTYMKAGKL
UniProt Q92804: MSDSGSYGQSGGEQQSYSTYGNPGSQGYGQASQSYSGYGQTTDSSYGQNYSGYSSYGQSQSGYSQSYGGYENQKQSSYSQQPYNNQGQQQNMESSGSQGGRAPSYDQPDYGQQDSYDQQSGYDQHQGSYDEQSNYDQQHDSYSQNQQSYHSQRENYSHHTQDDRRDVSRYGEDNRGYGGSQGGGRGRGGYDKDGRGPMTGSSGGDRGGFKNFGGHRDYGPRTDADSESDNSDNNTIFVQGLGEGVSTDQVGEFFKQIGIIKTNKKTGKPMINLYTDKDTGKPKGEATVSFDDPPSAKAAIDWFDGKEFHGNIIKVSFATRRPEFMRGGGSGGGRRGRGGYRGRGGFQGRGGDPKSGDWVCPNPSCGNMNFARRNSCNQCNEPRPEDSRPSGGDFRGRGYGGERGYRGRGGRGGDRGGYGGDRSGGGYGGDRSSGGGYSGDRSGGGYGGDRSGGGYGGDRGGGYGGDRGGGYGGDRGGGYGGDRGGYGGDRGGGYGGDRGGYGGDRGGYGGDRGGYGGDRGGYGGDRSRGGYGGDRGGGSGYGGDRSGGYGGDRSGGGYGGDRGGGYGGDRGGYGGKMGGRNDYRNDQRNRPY
UniProt Q96BW9: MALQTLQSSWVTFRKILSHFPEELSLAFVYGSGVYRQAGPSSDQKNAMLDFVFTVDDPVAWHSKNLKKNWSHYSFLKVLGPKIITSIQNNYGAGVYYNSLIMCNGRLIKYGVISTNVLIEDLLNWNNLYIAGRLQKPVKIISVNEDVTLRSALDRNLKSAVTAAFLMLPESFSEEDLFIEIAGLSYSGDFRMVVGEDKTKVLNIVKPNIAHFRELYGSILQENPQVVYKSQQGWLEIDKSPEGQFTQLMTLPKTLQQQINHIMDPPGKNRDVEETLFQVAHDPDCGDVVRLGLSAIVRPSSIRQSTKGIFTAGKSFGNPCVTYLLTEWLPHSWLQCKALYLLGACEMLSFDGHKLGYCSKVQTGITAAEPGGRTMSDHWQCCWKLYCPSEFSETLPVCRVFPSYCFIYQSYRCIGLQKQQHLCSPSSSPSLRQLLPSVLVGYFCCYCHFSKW
UniProt Q13395: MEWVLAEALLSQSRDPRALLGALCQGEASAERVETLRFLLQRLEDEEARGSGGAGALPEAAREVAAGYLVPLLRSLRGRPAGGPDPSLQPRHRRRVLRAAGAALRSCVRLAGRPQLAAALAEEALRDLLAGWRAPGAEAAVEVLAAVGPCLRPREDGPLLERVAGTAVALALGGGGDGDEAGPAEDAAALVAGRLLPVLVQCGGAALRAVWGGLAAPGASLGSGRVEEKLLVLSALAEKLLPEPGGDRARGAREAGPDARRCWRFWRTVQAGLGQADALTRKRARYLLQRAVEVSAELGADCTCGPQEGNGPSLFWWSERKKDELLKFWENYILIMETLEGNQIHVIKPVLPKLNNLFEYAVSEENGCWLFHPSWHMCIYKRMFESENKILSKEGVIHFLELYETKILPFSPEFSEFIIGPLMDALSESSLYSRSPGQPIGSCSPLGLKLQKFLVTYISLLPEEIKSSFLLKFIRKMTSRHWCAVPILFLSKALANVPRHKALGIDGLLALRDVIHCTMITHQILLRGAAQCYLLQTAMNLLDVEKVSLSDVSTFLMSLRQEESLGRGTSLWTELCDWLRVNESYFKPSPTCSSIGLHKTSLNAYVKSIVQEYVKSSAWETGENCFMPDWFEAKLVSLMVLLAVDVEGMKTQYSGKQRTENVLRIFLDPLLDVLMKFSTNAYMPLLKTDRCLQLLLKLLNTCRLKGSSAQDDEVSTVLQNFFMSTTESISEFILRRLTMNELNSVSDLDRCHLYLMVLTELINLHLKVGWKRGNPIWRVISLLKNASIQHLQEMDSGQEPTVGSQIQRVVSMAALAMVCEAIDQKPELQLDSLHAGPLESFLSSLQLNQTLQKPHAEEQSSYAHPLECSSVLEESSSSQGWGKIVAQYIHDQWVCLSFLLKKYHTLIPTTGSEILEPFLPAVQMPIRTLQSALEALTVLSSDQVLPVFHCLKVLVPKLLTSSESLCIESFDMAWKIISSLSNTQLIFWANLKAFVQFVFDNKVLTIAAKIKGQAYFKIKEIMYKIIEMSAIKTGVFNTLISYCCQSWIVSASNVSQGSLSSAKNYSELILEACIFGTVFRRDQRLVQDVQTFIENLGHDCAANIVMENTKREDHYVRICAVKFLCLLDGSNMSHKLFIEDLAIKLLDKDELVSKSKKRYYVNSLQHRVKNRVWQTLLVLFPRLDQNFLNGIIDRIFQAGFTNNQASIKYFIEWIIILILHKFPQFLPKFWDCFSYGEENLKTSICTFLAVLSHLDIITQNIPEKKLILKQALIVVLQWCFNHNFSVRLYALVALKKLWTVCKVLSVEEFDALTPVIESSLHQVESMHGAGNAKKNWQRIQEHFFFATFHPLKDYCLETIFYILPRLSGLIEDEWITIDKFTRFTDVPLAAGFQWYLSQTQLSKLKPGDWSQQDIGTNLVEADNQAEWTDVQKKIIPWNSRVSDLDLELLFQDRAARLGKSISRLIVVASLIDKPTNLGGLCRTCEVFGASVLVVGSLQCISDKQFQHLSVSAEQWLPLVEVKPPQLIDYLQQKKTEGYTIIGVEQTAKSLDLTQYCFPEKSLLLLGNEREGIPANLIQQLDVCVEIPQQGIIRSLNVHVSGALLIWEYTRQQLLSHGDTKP
UniProt Q9Y3F4: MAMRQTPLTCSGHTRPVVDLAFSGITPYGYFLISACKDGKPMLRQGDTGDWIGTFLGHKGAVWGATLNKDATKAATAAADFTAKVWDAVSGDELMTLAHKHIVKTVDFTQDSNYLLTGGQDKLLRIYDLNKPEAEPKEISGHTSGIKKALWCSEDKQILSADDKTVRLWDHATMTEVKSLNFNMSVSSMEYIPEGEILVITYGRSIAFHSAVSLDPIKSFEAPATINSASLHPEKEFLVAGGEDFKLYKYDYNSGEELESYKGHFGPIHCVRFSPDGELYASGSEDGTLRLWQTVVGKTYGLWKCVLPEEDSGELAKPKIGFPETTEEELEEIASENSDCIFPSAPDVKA
UniProt Q8NHG7: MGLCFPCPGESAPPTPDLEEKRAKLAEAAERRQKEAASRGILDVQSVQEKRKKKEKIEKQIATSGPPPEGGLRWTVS
UniProt O43752: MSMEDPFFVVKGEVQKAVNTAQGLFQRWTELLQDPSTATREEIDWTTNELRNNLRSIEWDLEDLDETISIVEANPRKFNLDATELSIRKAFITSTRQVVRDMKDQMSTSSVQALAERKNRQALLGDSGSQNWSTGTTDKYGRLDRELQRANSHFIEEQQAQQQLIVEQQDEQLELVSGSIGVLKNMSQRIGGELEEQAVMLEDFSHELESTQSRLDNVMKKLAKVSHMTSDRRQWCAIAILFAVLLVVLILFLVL
UniProt Q16594, whole entry, looked up: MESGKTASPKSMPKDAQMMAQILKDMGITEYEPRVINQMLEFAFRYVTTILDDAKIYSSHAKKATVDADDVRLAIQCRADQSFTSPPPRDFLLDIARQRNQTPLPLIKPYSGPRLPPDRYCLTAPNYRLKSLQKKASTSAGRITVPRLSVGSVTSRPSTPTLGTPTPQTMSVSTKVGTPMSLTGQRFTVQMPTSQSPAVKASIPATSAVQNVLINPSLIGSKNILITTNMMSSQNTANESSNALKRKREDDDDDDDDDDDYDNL
UniProt Q8NBK3: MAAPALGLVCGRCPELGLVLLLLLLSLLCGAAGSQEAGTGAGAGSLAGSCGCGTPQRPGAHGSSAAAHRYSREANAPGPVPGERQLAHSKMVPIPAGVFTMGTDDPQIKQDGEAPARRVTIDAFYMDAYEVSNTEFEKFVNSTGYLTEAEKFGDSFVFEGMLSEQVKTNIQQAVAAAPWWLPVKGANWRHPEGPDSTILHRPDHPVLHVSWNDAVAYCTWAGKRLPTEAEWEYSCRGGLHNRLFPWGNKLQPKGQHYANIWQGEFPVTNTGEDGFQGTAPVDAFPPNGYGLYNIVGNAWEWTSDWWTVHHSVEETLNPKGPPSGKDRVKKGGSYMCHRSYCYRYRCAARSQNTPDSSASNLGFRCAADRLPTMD
UniProt Q16514: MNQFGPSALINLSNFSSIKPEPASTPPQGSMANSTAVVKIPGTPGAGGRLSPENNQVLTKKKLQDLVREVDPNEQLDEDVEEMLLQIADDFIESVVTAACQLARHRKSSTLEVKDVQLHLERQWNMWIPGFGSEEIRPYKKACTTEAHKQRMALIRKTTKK
UniProt P08247, whole entry, looked up: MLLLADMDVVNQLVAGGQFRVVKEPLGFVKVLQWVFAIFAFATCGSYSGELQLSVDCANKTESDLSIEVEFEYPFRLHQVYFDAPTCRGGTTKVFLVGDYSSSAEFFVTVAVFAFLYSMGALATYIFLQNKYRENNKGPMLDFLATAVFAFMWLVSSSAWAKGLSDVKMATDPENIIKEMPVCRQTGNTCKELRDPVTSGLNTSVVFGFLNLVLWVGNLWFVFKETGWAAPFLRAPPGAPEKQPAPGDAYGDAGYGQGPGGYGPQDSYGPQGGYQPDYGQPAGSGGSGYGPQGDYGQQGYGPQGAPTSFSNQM

What was measured:
Experiment in all cases: log2 fold change, soluble protein after heating vs DMSO (PISA); higher = thermal stabilisation; K562 cells, 10 uM, 30 min; active = over 0.2 and 3.5 SD of the protein, either way, in both replicates (recomputed)
[1] = compound: NC(=O)Nc1cc(-c2cccc(F)c2)sc1C(=O)N[C@H]1CCCNC1
How it was run: (§1)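 K562 cells at 2×10^6 cells/mL were given 10 μM compound for 30 min. Aliquots then went through 3 min of heating across 48°C-58°C, were pooled, and were extracted in PBS with 0.5% NP-40 at 4°C, and the supernatant after 21,000xg for 90 min was quantified by TMTpro 16plex LC-MS/MS with channel sums equalised. Thermal stability relative to control samples, from duplicates, is given as log2 fold change.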

[2] = compound: NC(=O)c1cnc(N[C@@H]2CCCC[C@@H]2N)nc1Nc1cccc(-n2nccn2)c1
How it was run: as §1

[3] = compound: NC1(c2ccc(-c3nc4ccn5c(=O)[nH]nc5c4cc3-c3ccccc3)cc2)CCC1
How it was run: as §1

[4] = compound: NCC(=O)Nc1ccc(-n2nc(C(F)(F)F)cc2-c2ccc3c(ccc4ccccc43)c2)cc1
How it was run: as §1

entinostat = compound: Nc1ccccc1NC(=O)c1ccc(CNC(=O)OCc2cccnc2)cc1 [entinostat]
How it was run: as §1

vorinostat = compound: O=C(CCCCCCC(=O)Nc1ccccc1)NO [vorinostat]
How it was run: as §1

citarinostat = compound: O=C(CCCCCCNC(=O)c1cnc(N(c2ccccc2)c2ccccc2Cl)nc1)NO [citarinostat]
How it was run: as §1

silmitasertib = compound: O=C(O)c1ccc2c(c1)nc(Nc1cccc(Cl)c1)c1ccncc12 [silmitasertib]
How it was run: as §1

[5] = compound: O=C1NC(=O)C(c2cnc3ccccn23)=C1c1cn2c3c(cc(F)cc13)CN(C(=O)N1CCCCC1)CC2
How it was run: as §1

[6] = compound: c1cc(OCCN2CCCCC2)cc(-c2n[nH]c3ccc(-c4nnc[nH]4)cc23)c1
How it was run: as §1

Row | Target | log2 fold change [1] | log2 fold change [2] | log2 fold change [3] | log2 fold change [4] | log2 fold change (entinostat) | log2 fold change (vorinostat) | log2 fold change (citarinostat) | log2 fold change (silmitasertib) | log2 fold change [5] | log2 fold change [6]
1 | STK4 (UniProt Q13043) | active: 0.248 | inactive: -0.031 | inactive: -0.1 | inactive: 0.006 | inactive: -0.041 | inactive: 0.011 | inactive: 0.064 | inactive: -0.015 | inactive: -0.031 | inactive: -0.122
2 | SURF6 (UniProt O75683) | inactive: 0.073 | inactive: 0.01 | inactive: 0.154 | inactive: 0.12 | inactive: -0.106 | inactive: -0.009 | inactive: -0.102 | inactive: 0.147 | inactive: 0.43 | inactive: -0.035
3 | SUCLA2 (UniProt Q9P2R7) | inactive: -0.021 | inactive: -0.058 | inactive: -0.128 | inactive: -0.077 | inactive: 0.014 | inactive: 0.107 | inactive: 0.068 | inactive: -0.039 | inactive: -0.028 | inactive: -0.046
4 | TATDN3 isoform 3 (UniProt Q17R31) | inactive: -0.039 | inactive: 0.014 | inactive: -0.026 | inactive: -0.15 | inactive: 0.037 | inactive: -0.017 | inactive: 0.072 | inactive: 0.004 | inactive: -0.043 | inactive: 0.001
5 | STK38L (UniProt Q9Y2H1) | inactive: -0.046 | inactive: -0.015 | inactive: -0.117 | inactive: 0.078 | inactive: 0.109 | inactive: 0.02 | inactive: 0.036 | inactive: 0.101 | inactive: -0.078 | inactive: 0.05
6 | TAF15 (UniProt Q92804) | inactive: 0 | inactive: 0.032 | inactive: 0.192 | inactive: -0.018 | inactive: -0.052 | inactive: -0.002 | inactive: -0.021 | inactive: 0.069 | inactive: 0.089 | inactive: -0.112
7 | TAMM41 isoform 3 (UniProt Q96BW9) | inactive: 0.001 | inactive: -0.052 | inactive: -0.148 | inactive: -0.059 | inactive: 0.022 | inactive: 0.023 | inactive: 0.013 | inactive: -0.004 | inactive: -0.125 | inactive: -0.043
8 | TARS2 (UniProt Q9BW92) | inactive: 0.008 | inactive: -0.018 | active: -0.27 | inactive: -0.031 | inactive: 0.011 | inactive: -0.051 | inactive: 0.038 | inactive: -0.005 | inactive: -0.057 | inactive: -0.008
9 | TARBP1 (UniProt Q13395) | inactive: -0.033 | inactive: 0.048 | inactive: -0.027 | inactive: 0.014 | inactive: -0.044 | inactive: 0.003 | inactive: 0.079 | inactive: 0.034 | inactive: 0.053 | inactive: 0
10 | TACC2 (UniProt O95359) | inactive: -0.013 | inactive: -0.027 | inactive: -0.052 | inactive: -0.187 | inactive: 0.035 | inactive: -0.033 | inactive: 0.003 | inactive: 0.116 |  | inactive: -0.073
11 | SUCO (UniProt Q9UBS9) | inactive: -0.066 | inactive: 0.037 | inactive: -0.077 | inactive: -0.154 | inactive: -0.033 | inactive: -0.035 | inactive: -0.172 | inactive: -0.22 | inactive: 0.055 | inactive: -0.36
12 | TADA3 (UniProt O75528) | inactive: -0.003 | inactive: -0.014 | inactive: 0 | inactive: -0.04 | inactive: 0.036 | inactive: -0.015 | inactive: 0.012 | inactive: 0 | inactive: 0.019 | inactive: -0.057
13 | TAF6L (UniProt Q9Y6J9) | inactive: -0.038 | inactive: -0.067 | inactive: -0.061 |  | inactive: 0.033 | inactive: 0.248 |  | inactive: 0.303 |  | 
14 | TACC3 (UniProt Q9Y6A5) | inactive: 0.022 | inactive: -0.06 | inactive: 0.034 | inactive: -0.002 | inactive: -0.017 | inactive: 0 | inactive: -0.012 | inactive: 0.028 | inactive: -0.032 | inactive: 0.023
15 | STRAP isoform 2 (UniProt Q9Y3F4) | inactive: 0.005 | inactive: -0.017 | inactive: 0.013 | inactive: 0.004 | inactive: -0.037 | inactive: 0.006 | inactive: -0.013 | inactive: -0.018 | inactive: 0.031 | inactive: -0.06
16 | SUDS3 (UniProt Q9H7L9) | inactive: -0.113 | inactive: -0.207 | inactive: -0.192 | inactive: -0.039 | inactive: -0.068 |  | inactive: -0.009 | inactive: 0.074 | inactive: -0.063 | inactive: 0.209

Row | Target | log2 fold change [1] | log2 fold change [2] | log2 fold change [3] | log2 fold change [4] | log2 fold change (entinostat) | log2 fold change (vorinostat) | log2 fold change (citarinostat) | log2 fold change (silmitasertib) | log2 fold change [5] | log2 fold change [6]
17 | SUMO2 (UniProt P61956) | inactive: 0.063 | inactive: 0.058 | inactive: 0.146 | inactive: 0.109 | inactive: -0.056 | inactive: -0.095 | inactive: -0.111 | inactive: -0.005 |  | inactive: -0.073
18 | SUPT5H (UniProt O00267) | inactive: -0.031 | inactive: -0.049 | inactive: -0.129 | inactive: -0.095 | inactive: 0.029 | inactive: 0.043 | inactive: 0.074 | inactive: 0.038 | inactive: -0.115 | inactive: -0.028
19 | SVIP (UniProt Q8NHG7) | inactive: -0.081 | inactive: 0.188 | inactive: 0.051 | inactive: 0.001 | inactive: -0.041 | inactive: -0.074 | inactive: -0.023 | inactive: -0.024 | inactive: -0.094 | inactive: -0.124
20 | STK38 (UniProt Q15208) | inactive: -0.072 | inactive: -0.077 | inactive: -0.11 | inactive: -0.062 | inactive: 0.129 | inactive: 0.016 | inactive: 0.097 | inactive: 0.061 | inactive: 0.004 | inactive: -0.086
21 | STX6 (UniProt O43752) | inactive: -0.017 | inactive: 0.046 | inactive: 0.032 | inactive: 0.007 | inactive: -0.039 | inactive: -0.049 | inactive: 0.008 | inactive: 0.037 | inactive: -0.064 | inactive: -0.053
22 | STXBP1 (UniProt P61764) | inactive: 0.042 | inactive: -0.067 | inactive: -0.162 | inactive: -0.086 | inactive: -0.011 | inactive: 0.131 | inactive: 0.077 | inactive: 0.016 | inactive: 0.158 | inactive: 0.162
23 | TAOK3 (UniProt Q9H2K8) | inactive: -0.013 | inactive: -0.149 | inactive: -0.048 | inactive: 0 | inactive: 0.034 | inactive: 0.036 | inactive: 0.106 | inactive: 0 | inactive: 0.021 | inactive: -0.203
24 | SYNE2 isoform 2 (UniProt Q8WXH0) | inactive: -0.229 | inactive: -0.172 | inactive: 0.087 | inactive: -0.134 | inactive: -0.125 | inactive: 0.072 | inactive: 0.053 | inactive: -0.056 |  | inactive: 0.03
25 | TAF9 (UniProt Q16594) | inactive: -0.352 | inactive: -0.026 | inactive: 0.037 | inactive: 0 | active: -0.567 | inactive: 0.002 | inactive: -0.043 | inactive: -0.039 | inactive: -0.022 | inactive: 0.055
26 | SUMF1 isoform 3 (UniProt Q8NBK3) | inactive: 0.214 | inactive: 0.063 | inactive: -0.062 | inactive: -0.098 | inactive: 0.057 | inactive: -0.072 |  | inactive: 0.042 | inactive: -0.027 | 
27 | TAF11 (UniProt Q15544) | inactive: 0.04 | inactive: 0.046 | inactive: 0.03 |  | inactive: -0.046 | inactive: -0.003 |  | inactive: 0.035 |  | 
28 | TAF12 (UniProt Q16514) | inactive: 0.181 |  | inactive: -0.141 | inactive: 0.056 | inactive: 0.04 | inactive: -0.022 | inactive: -0.041 | inactive: 0.082 |  | inactive: -0.029
29 | TAF9B (UniProt Q9HBM6) | inactive: -0.041 |  | inactive: -0.244 | inactive: 0.113 | inactive: -0.102 | inactive: 0.127 |  | inactive: 0.242 | inactive: 0.116 | 
30 | STK3 isoform 2 (UniProt Q13188) |  | inactive: 0.018 | inactive: -0.064 | inactive: -0.019 | inactive: -0.01 | inactive: -0.023 | inactive: 0.028 | inactive: 0 | inactive: 0.016 | inactive: -0.074
31 | SYP (UniProt P08247) |  | inactive: 0.013 | inactive: -0.008 | inactive: 0.005 |  | inactive: -0.068 | inactive: -0.148 | inactive: 0.092 | inactive: -0.095 | inactive: -0.014

Pulled one by one from the entries so far (two):
Row | Target | log2 fold change [1] | log2 fold change [2] | log2 fold change [3] | log2 fold change [4] | log2 fold change (entinostat) | log2 fold change (vorinostat) | log2 fold change (citarinostat) | log2 fold change (silmitasertib) | log2 fold change [5] | log2 fold change [6]
25 | TAF9 (UniProt Q16594) | inactive: -0.352 | inactive: -0.026 | inactive: 0.037 | inactive: 0 | active: -0.567 | inactive: 0.002 | inactive: -0.043 | inactive: -0.039 | inactive: -0.022 | inactive: 0.055
20 | STK38 (UniProt Q15208) | inactive: -0.072 | inactive: -0.077 | inactive: -0.11 | inactive: -0.062 | inactive: 0.129 | inactive: 0.016 | inactive: 0.097 | inactive: 0.061 | inactive: 0.004 | inactive: -0.086
